In PMC11666741:
Like-named read-outs stand apart in the source and are kept apart here. No constants are given. Whether binding was seen depends on the method and setting. For some of these results: Binding seen in cells or lysates may run through a third protein. Some entries that bind do so weakly or less than the wild type. For some of these results: Sequences can lack the tags named with a protein. One block for each molecule: values may come before it.

Sequences of proteins named here, by UniProt entry; tags and fusion partners are left off.
UniProt Q8S8P5: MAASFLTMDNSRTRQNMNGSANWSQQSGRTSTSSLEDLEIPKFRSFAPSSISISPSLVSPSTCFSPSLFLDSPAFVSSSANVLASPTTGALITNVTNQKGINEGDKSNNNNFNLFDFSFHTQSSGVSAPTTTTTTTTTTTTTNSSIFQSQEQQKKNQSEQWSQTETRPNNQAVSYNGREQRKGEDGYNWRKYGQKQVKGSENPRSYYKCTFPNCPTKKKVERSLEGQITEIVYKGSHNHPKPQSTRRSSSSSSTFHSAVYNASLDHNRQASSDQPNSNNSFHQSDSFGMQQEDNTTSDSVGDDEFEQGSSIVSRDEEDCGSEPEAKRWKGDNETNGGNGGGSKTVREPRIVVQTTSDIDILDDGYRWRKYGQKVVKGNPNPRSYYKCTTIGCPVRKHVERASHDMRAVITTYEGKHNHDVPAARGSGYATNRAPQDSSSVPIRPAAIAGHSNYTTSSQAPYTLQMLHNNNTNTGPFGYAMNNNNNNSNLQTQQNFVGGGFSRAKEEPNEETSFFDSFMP
UniProt Q9C5T4: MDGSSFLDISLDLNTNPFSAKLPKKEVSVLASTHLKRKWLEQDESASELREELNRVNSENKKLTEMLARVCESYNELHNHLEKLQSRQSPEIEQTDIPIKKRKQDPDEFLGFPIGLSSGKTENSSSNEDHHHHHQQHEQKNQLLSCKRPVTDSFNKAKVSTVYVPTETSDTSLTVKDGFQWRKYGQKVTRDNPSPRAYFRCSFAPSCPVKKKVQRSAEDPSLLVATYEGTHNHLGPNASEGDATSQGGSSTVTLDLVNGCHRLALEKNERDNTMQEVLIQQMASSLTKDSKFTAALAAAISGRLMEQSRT
UniProt Q9FYA2: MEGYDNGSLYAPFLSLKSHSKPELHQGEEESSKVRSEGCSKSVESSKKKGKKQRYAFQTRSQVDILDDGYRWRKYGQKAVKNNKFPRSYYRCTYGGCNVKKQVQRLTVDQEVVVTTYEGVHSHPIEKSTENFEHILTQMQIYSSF

Experiments:
[1] = molecular target: T1, VQ1 (VQ motif-containing protein 1), yeast two-hybrid fusion (Arabidopsis thaliana) (UniProt Q1G3U8); assay: two-hybrid; Matchmaker Gold mating system: Y2HGold with GAL4-BD baits mated with Y187 with GAL4-AD preys; diploids on SD/QDO (-Ade/-His/-Leu/-Trp); empty BD or AD clones as controls
T1 sequence: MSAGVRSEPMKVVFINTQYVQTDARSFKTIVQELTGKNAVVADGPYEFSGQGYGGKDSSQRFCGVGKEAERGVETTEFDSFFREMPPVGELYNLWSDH

[2] = molecular target: T2, VQ10 (VQ motif-containing protein 10), yeast two-hybrid fusion (Arabidopsis thaliana) (UniProt Q8VYI5); assay: as above
T2 sequence: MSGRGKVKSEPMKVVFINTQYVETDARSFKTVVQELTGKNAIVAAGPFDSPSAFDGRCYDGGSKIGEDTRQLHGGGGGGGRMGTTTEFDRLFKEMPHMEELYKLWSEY

[3] = molecular target: WRKY33 transcription factor, yeast two-hybrid fusion (Arabidopsis thaliana) (UniProt Q8S8P5); assay: as above
[4] = molecular target: T1, VQ1 (VQ motif-containing protein 1), yeast two-hybrid fusion (Arabidopsis thaliana); assay: as above; remark: listed apart in the source
[5] = molecular target: T2, VQ10 (VQ motif-containing protein 10), yeast two-hybrid fusion (Arabidopsis thaliana); assay: as above; remark: listed apart in the source
[6] = molecular target: T3, DXS-GFP (1-deoxy-D-xylulose-5-phosphate synthase fused to GFP) (Arabidopsis thaliana) (UniProt Q38854); assay: co-IP; N. benthamiana leaves co-agroinfiltrated; total protein extract (50 mM Tris-HCl pH 7.5, 150 mM NaCl, 10% glycerol, 0.15% Nonidet P-40; 0.5 mM, 0.05 mM or 5 mM DTT); IP of DXS-GFP with GFP-Trap magnetic beads; blot with anti-HA
T3 sequence: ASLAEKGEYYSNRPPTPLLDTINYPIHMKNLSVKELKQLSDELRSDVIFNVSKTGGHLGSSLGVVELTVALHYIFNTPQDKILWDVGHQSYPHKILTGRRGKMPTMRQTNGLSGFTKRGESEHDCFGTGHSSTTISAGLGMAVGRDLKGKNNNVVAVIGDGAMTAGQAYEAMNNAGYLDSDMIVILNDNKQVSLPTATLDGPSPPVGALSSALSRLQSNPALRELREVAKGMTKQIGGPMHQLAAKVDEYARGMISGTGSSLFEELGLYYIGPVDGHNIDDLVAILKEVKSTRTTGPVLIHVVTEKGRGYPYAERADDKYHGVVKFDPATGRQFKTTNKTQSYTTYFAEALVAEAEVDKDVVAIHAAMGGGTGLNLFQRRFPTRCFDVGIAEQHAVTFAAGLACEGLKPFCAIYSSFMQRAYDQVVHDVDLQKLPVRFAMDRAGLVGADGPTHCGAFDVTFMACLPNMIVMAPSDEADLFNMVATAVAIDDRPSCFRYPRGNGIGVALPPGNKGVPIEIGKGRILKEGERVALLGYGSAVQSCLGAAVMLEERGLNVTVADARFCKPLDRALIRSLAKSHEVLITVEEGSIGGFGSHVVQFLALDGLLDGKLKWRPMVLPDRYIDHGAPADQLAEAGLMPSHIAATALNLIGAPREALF

[7] = molecular target: 3xHA-VQ1 (Arabidopsis thaliana) (UniProt Q1G3U8); assay: Western blot of extracts and immunoprecipitates (bands of oligomers, dimers and monomers, sensitive to DTT); N. benthamiana extracts and IPs prepared at the indicated DTT (0.05 to 5 mM); blots with anti-GFP or anti-HA
[8] = molecular target: 3xHA-VQ10 (Arabidopsis thaliana) (UniProt Q8VYI5); assay: as above
[9] = molecular target: T4, VQ1-RFP (Arabidopsis thaliana) (UniProt Q1G3U8); assay: co-IP; N. benthamiana leaves co-agroinfiltrated; total protein extract with 0.5 mM DTT; IP of VQ-RFP with RFP-Trap Magnetic Agarose; blot with anti-GFP
T4 sequence: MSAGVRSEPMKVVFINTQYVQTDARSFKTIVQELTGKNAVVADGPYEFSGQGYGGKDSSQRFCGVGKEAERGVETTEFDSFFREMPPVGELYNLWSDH

[10] = molecular target: T5, VQ10-RFP (Arabidopsis thaliana) (UniProt Q8VYI5); assay: as above
T5 sequence: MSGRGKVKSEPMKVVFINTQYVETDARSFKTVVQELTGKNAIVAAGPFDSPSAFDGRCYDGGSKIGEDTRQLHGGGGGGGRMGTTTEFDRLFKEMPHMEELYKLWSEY

[11] = molecular target: T3, DXS-GFP (1-deoxy-D-xylulose-5-phosphate synthase fused to GFP) (Arabidopsis thaliana); assay: Western blot of extracts and immunoprecipitates (bands of oligomers, dimers and monomers, sensitive to DTT); N. benthamiana extracts and IPs prepared at the indicated DTT (0.05 to 5 mM); blots with anti-GFP or anti-HA

Molecule: WRKY18 transcription factor, yeast two-hybrid fusion (from UniProt Q9C5T4 1-310)
binding [1]: binds weakly
binding [2]: binds weakly

B1: VQ1 (VQ motif-containing protein 1), yeast two-hybrid fusion (protein, UniProt Q1G3U8 1-98)
chain: MSAGVRSEPMKVVFINTQYVQTDARSFKTIVQELTGKNAVVADGPYEFSGQGYGGKDSSQRFCGVGKEAERGVETTEFDSFFREMPPVGELYNLWSDH
binding [3]: binds
binding [4]: binds

B2: VQ10 (VQ motif-containing protein 10), yeast two-hybrid fusion (protein, UniProt Q8VYI5 1-108)
chain: MSGRGKVKSEPMKVVFINTQYVETDARSFKTVVQELTGKNAIVAAGPFDSPSAFDGRCYDGGSKIGEDTRQLHGGGGGGGRMGTTTEFDRLFKEMPHMEELYKLWSEY
binding [3]: binds
binding [4]: binds
binding [5]: binds

B6: HA-VQ10C58S (protein, UniProt Q8VYI5 1-108)
chain: MSGRGKVKSEPMKVVFINTQYVETDARSFKTVVQELTGKNAIVAAGPFDSPSAFDGRSYDGGSKIGEDTRQLHGGGGGGGRMGTTTEFDRLFKEMPHMEELYKLWSEY
binding [6]: binds

B7: DXS-GFP (1-deoxy-D-xylulose-5-phosphate synthase fused to GFP) (enzyme, UniProt Q38854 59-717)
chain: ASLAEKGEYYSNRPPTPLLDTINYPIHMKNLSVKELKQLSDELRSDVIFNVSKTGGHLGSSLGVVELTVALHYIFNTPQDKILWDVGHQSYPHKILTGRRGKMPTMRQTNGLSGFTKRGESEHDCFGTGHSSTTISAGLGMAVGRDLKGKNNNVVAVIGDGAMTAGQAYEAMNNAGYLDSDMIVILNDNKQVSLPTATLDGPSPPVGALSSALSRLQSNPALRELREVAKGMTKQIGGPMHQLAAKVDEYARGMISGTGSSLFEELGLYYIGPVDGHNIDDLVAILKEVKSTRTTGPVLIHVVTEKGRGYPYAERADDKYHGVVKFDPATGRQFKTTNKTQSYTTYFAEALVAEAEVDKDVVAIHAAMGGGTGLNLFQRRFPTRCFDVGIAEQHAVTFAAGLACEGLKPFCAIYSSFMQRAYDQVVHDVDLQKLPVRFAMDRAGLVGADGPTHCGAFDVTFMACLPNMIVMAPSDEADLFNMVATAVAIDDRPSCFRYPRGNGIGVALPPGNKGVPIEIGKGRILKEGERVALLGYGSAVQSCLGAAVMLEERGLNVTVADARFCKPLDRALIRSLAKSHEVLITVEEGSIGGFGSHVVQFLALDGLLDGKLKWRPMVLPDRYIDHGAPADQLAEAGLMPSHIAATALNLIGAPREALF
binding [9]: binds
binding [10]: binds
binding [11]: binds

Second part, the molecule after the results:

binding [1]: binds
binding [2]: binds
Molecule: WRKY75 transcription factor, yeast two-hybrid fusion (from UniProt Q9FYA2 1-145)

binding [4]: binds
binding [5]: binds
B3: WRKY40 transcription factor, yeast two-hybrid fusion (protein, UniProt Q9SAH7 1-302)
chain: MDQYSSSLVDTSLDLTIGVTRMRVEEDPPTSALVEELNRVSAENKKLSEMLTLMCDNYNVLRKQLMEYVNKSNITERDQISPPKKRKSPAREDAFSCAVIGGVSESSSTDQDEYLCKKQREETVVKEKVSRVYYKTEASDTTLVVKDGYQWRKYGQKVTRDNPSPRAYFKCACAPSCSVKKKVQRSVEDQSVLVATYEGEHNHPMPSQIDSNNGLNRHISHGGSASTPVAANRRSSLTVPVTTVDMIESKKVTSPTSRIDFPQVQKLLVEQMASSLTKDPNFTAALAAAVTGKLYQQNHTEK

binding [6]: binds
binding [7]: binds
B4: 3xHA-VQ1 (protein, UniProt Q1G3U8 1-98)
chain: MSAGVRSEPMKVVFINTQYVQTDARSFKTIVQELTGKNAVVADGPYEFSGQGYGGKDSSQRFCGVGKEAERGVETTEFDSFFREMPPVGELYNLWSDH

binding [6]: binds
binding [8]: binds
B5: 3xHA-VQ10 (protein, UniProt Q8VYI5 1-108)
chain: MSGRGKVKSEPMKVVFINTQYVETDARSFKTVVQELTGKNAIVAAGPFDSPSAFDGRCYDGGSKIGEDTRQLHGGGGGGGRMGTTTEFDRLFKEMPHMEELYKLWSEY
